According to article PMC6312196 (ChemMedChem, 2018):

Tests used:
KCL22 = experiment: Cellular proliferation assay; type: cell-based; details: Homo sapiens, KCL-22, 72 h, read-out: IC50 (mean ±SD) KCL22
K562 = experiment: Cellular proliferation assay; type: cell-based; details: Homo sapiens, K562, 72 h, read-out: IC50 (mean ±SD) K562

IC50 (K562): 88.6 ± 0.6 nM
Compound: Cc1ccc(NC(=O)c2ccc(CN3CCN(C)CC3)cc2)cc1Nc1nccc(-c2cccnc2)n1 [Imatinib, reference compound]
IC50 (KCL22): 83.7 ± 0.7 nM
